Data published in the supplement of paper PMC11732987, “Enantioselective OTUD7B fragment discovery through chemoproteomics screening and high-throughput optimisation” (Communications Chemistry, 2025).
The other results are listed elsewhere or left out. The data scatter; read single values as rough.

Chains of the proteins cited; added tags and fusions are not shown. Lines headed by an entry give the natural chain unless they say otherwise; changes in a name come on top. Residues count along the entry.
UniProt Q9BSD7: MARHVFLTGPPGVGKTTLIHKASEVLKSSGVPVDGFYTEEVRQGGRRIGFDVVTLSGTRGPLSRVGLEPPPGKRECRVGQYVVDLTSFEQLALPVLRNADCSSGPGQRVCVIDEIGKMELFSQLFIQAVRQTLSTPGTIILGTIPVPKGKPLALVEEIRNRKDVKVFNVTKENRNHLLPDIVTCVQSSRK
UniProt Q8N1F7, 505-524: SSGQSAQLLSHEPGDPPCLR
UniProt Q8N1F7, 397-417: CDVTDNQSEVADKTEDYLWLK
UniProt Q92621: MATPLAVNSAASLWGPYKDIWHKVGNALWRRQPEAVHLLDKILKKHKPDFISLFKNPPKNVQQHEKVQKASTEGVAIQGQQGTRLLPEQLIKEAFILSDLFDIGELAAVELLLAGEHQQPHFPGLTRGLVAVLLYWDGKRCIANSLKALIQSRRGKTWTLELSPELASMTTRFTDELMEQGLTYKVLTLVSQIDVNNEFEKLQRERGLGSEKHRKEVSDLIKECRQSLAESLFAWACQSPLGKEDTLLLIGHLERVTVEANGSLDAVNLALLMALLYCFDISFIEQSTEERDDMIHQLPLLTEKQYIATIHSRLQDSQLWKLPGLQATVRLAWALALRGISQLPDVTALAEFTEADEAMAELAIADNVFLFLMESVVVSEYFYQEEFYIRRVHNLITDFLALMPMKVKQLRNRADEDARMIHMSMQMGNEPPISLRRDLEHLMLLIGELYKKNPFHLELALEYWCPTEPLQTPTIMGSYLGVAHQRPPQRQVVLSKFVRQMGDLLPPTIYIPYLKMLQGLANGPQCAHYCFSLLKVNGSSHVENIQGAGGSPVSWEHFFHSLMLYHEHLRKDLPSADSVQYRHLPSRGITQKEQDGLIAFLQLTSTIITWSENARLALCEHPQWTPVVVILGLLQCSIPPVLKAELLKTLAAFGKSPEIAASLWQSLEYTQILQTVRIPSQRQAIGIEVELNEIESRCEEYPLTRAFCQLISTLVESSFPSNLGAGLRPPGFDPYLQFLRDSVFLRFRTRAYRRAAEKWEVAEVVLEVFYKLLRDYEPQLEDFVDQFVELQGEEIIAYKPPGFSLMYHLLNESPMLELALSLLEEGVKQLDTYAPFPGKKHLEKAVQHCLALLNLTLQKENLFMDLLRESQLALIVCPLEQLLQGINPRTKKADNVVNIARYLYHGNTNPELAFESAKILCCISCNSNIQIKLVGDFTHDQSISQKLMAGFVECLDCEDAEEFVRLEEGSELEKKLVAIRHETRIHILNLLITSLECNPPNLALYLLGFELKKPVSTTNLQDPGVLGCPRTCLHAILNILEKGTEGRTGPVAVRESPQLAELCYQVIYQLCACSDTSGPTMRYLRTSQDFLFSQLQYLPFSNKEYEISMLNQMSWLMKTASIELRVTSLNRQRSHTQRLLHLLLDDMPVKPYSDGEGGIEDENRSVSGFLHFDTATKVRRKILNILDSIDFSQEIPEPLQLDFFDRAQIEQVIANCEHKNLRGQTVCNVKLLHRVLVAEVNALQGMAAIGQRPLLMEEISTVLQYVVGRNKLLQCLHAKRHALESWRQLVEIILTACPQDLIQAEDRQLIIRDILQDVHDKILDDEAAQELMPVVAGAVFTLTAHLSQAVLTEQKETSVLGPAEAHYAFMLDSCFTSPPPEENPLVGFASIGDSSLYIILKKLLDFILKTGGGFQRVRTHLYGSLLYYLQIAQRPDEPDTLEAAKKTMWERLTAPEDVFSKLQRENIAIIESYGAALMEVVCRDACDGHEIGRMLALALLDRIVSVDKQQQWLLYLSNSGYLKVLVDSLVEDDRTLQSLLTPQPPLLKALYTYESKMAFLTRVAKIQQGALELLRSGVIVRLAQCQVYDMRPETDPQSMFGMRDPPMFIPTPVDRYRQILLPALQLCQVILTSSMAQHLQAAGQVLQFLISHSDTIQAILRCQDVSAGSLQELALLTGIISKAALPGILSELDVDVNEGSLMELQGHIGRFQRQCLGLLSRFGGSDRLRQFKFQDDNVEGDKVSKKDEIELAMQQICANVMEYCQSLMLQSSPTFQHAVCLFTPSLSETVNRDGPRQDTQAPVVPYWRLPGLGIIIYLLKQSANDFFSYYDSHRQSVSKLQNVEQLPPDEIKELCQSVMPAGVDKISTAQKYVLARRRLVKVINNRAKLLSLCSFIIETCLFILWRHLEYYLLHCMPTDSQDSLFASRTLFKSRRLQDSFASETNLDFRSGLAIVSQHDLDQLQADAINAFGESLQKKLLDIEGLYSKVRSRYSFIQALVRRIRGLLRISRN
UniProt Q12769: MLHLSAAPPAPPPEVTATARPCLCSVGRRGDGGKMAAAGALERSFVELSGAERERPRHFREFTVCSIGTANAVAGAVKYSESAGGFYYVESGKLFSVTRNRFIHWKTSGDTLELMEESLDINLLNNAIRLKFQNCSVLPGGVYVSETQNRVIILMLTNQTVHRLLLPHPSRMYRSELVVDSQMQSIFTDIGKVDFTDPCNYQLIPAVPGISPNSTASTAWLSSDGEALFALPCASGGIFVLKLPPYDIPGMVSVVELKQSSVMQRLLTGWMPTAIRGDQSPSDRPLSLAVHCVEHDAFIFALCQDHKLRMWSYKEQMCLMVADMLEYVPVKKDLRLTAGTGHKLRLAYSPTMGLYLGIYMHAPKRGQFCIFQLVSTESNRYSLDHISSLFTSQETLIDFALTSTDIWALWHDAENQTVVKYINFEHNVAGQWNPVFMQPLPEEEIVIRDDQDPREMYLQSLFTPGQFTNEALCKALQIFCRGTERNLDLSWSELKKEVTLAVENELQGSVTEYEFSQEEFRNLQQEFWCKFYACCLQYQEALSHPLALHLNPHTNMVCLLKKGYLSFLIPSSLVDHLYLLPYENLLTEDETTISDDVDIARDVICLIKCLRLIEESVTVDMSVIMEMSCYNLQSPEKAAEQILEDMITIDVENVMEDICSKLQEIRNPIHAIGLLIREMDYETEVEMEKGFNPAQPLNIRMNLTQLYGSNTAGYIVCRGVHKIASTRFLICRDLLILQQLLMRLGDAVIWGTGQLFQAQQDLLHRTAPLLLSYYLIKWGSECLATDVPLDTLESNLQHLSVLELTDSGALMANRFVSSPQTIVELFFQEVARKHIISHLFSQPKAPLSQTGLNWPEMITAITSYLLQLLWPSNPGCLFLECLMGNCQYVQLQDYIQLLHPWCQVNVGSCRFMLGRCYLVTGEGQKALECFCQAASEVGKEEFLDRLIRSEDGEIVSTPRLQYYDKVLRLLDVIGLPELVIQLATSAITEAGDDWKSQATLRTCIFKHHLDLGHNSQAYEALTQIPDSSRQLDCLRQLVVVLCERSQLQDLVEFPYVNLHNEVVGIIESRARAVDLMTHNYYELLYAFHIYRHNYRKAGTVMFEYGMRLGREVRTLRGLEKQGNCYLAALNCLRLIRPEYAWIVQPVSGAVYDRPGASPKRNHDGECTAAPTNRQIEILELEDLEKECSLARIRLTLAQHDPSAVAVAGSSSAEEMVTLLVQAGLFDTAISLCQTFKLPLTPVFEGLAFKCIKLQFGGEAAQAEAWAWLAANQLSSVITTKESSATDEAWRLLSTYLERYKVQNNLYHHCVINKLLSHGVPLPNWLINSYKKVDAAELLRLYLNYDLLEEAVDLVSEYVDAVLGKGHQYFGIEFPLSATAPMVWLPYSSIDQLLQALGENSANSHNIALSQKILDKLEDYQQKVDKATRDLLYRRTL
UniProt O96028: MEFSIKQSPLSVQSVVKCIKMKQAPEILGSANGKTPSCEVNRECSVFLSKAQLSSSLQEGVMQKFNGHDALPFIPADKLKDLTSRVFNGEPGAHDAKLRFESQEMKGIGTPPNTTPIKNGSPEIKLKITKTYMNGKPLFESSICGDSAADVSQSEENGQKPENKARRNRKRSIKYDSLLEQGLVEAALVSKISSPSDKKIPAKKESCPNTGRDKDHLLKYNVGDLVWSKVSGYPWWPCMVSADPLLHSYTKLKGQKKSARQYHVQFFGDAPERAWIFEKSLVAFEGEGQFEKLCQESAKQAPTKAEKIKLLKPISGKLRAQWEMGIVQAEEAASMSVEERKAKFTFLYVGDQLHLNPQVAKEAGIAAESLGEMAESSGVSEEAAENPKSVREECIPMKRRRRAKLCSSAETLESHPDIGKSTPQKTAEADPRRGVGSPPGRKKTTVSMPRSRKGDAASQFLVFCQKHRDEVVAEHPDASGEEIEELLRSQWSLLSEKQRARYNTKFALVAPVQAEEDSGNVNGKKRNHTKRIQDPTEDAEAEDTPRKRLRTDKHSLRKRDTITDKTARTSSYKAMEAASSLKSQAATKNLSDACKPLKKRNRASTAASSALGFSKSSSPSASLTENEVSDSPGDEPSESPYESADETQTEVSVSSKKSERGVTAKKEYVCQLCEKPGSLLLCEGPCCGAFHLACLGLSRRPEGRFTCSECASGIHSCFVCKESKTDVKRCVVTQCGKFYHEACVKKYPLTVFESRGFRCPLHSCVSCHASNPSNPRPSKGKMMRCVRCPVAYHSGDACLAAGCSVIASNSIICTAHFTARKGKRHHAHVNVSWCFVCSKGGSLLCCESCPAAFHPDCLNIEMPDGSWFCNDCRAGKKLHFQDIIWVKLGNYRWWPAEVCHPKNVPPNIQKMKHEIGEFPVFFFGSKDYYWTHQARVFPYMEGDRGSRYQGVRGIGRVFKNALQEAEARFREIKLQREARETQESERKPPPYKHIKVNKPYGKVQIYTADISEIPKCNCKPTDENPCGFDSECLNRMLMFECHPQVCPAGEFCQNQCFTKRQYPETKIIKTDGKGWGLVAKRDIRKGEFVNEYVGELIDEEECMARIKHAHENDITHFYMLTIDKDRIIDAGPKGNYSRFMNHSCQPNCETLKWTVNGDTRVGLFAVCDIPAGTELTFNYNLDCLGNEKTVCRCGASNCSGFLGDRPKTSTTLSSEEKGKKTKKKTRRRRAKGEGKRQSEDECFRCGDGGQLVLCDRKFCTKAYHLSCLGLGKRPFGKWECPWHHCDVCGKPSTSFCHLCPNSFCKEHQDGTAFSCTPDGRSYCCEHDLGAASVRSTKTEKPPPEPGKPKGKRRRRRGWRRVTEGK
UniProt Q9H0G5: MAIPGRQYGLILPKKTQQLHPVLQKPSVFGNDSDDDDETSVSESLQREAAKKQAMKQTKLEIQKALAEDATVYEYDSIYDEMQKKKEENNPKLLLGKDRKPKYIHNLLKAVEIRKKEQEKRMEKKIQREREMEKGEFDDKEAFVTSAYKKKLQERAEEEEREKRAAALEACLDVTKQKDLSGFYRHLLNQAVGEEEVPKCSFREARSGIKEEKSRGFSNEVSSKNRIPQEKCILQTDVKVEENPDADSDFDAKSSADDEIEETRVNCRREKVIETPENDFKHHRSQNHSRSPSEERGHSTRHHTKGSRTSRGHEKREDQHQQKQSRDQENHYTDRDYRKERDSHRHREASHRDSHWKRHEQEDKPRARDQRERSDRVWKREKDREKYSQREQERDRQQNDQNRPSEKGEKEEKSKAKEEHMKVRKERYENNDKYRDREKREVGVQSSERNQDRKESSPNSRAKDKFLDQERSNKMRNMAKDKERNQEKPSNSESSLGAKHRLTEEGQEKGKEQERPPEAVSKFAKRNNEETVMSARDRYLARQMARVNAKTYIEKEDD
UniProt O15381: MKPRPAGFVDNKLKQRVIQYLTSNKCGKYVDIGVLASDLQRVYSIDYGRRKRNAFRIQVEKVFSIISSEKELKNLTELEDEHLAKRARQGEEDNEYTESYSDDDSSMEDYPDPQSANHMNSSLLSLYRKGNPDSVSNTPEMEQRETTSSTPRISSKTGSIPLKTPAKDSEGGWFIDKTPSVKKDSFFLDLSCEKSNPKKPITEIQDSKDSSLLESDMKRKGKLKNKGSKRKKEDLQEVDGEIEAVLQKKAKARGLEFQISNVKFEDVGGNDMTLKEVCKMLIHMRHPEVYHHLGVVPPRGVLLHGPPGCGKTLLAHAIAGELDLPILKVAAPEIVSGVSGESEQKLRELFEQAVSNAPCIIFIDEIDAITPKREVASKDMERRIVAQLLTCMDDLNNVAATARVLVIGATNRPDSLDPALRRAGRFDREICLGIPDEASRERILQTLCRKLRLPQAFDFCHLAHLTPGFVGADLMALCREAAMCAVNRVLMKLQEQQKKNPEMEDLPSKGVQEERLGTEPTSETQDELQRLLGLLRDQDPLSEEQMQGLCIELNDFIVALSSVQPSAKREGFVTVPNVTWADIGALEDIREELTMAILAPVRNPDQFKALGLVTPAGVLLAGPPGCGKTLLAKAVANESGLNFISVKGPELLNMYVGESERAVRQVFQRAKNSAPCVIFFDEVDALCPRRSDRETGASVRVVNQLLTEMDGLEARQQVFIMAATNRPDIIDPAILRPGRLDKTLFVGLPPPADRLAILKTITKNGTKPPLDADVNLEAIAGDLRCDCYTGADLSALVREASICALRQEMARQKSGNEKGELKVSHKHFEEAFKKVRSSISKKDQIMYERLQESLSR
UniProt Q96L73, 794-813: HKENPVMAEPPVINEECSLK

Legend:
[1] = compound: ClCC(=O)N[C@@H]1CCCc2ccccc12; assay: log2 mean competition ratio of IA-DTB cysteine labelling (DMSO/compound) (log2 ratio); higher = stronger cysteine engagement by compound; conditions: treatment time: 4 h, cell line lysate: HEK293T
Description: (§1)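 IA-DTB competitive cysteine chemoproteomics in HEK293T RIPA lysate. Lysates were treated with compound 29 or 30 at 50 or 200 µM for 4 h, then IA-DTB (500 µM, 1 h), trypsin-digested, NeutrAvidin-enriched and analysed by diaPASEF. Competition ratio = intensity DMSO / intensity compound (n=4 treated, n=64 DMSO); binding: mean log2 CR ≥ 1 and p ≤ 0.05 plus QC filters. Target is the cysteine site.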

[2] = compound: ClCC(=O)N[C@H]1CCCc2ccccc12; assay: as above; conditions: treatment time: 4 h, cell line lysate: HEK293T
Description: as §1

| Target | log2 mean competition ratio ([1]; 50 µM) | log2 mean competition ratio ([1]; 200 µM) | log2 mean competition ratio ([2]; 50 µM) | log2 mean competition ratio ([2]; 200 µM) |
| --- | --- | --- | --- | --- |
| NTPCR C101 (UniProt Q9BSD7) | -0.0822 | 0.113 | 0.000876 | 0.194 |
| NUP93 C392 (UniProt Q8N1F7) | -0.0121 | -0.16 | 0.209 | -0.0834 |
| NXT2;NXT1 C133;(C132) | -0.08 | 0.191 | 0.129 | 0.132 |
| NUP205 C1227 (UniProt Q92621) | -0.0114 | 0.0409 | 0.151 | 0.0219 |
| NUP93 C522 (UniProt Q8N1F7) | -0.0535 | 0.211 | -0.283 | 0.21 |
| NUMA1 C1367 (UniProt Q14980) | 0.088 | -0.276 | 0.114 | -0.0984 |
| NUP188 C976 (UniProt Q5SRE5) | 0.546 | -0.765 | 0.5 | -0.711 |
| NUP160 C1187 (UniProt Q12769) | -0.609 | 0.546 | -0.324 | 0.284 |
| NSD2 C406 (UniProt O96028) | 0.0522 | 0.155 | -0.369 | 0.0534 |
| NSRP1 C171 (UniProt Q9H0G5) | 0.0873 | 0.112 | -0.4 | 0.0211 |
| NSD2 C38 (UniProt O96028) | 0.097 | 0.137 | 0.0961 | 0.268 |
| OARD1 C24 (UniProt Q9Y530) | -0.00298 | -0.157 | 0.452 | -0.0851 |
| NUB1 C400 | 0.0323 | -0.111 | -0.102 | -0.182 |
| NUDCD1 C376 (UniProt Q96RS6) | -0.0986 | -0.00564 | -0.138 | -0.0281 |
| NUS1 C287 (UniProt Q96E22) | -0.0171 | 0.393 | -0.00664 | -0.0408 |
| NUBP2 C54 (UniProt Q9Y5Y2) | -0.219 | 0.229 | -0.416 | 0.321 |
| NUFIP1 C317 (UniProt Q9UHK0) | -0.0277 | -0.0847 | 0.181 | -0.0161 |
| NUP85 C265 (UniProt Q9BW27) | 0.122 | -0.109 | -0.109 | -0.226 |
| NPRL3 C278 (UniProt Q12980) | 0.147 | -0.000321 | 0.164 | 0.0712 |
| NSMCE1 C40 (UniProt Q8WV22) | 0.465 | -0.168 | 0.396 | -0.289 |
| OPA1 C801 (UniProt O60313) | -0.176 | 0.0411 | -0.533 | -0.0674 |
| NPRL2 C96 (UniProt Q8WTW4) | 0.101 | -0.0597 | 0.368 | 0.303 |

Limited to log2 mean competition ratio ([2]; 200 µM) and log2 mean competition ratio ([1]; 200 µM), for some of the entries so far:
Target,log2 mean competition ratio ([2]; 200 µM),log2 mean competition ratio ([1]; 200 µM)
NSD2 C406 (UniProt O96028),0.0534,0.155
NSRP1 C171 (UniProt Q9H0G5),0.0211,0.112
NSD2 C38 (UniProt O96028),0.268,0.137

Carrying on.

| Target | log2 mean competition ratio ([1]; 50 µM) | log2 mean competition ratio ([1]; 200 µM) | log2 mean competition ratio ([2]; 50 µM) | log2 mean competition ratio ([2]; 200 µM) |
| --- | --- | --- | --- | --- |
| OGA C596 (UniProt O60502) | -0.0654 | 0.000193 | 0.0951 | 0.0326 |
| NUP205 C1486 (UniProt Q92621) | -0.0925 | -0.174 | -0.0968 | -0.0767 |
| NUP88 C391 (UniProt Q99567) | -0.024 | -0.509 | 0.498 | -0.45 |
| NVL C431 (UniProt O15381) | 0.0325 | 0.104 | 0.26 | 0.275 |
| NUP93 C397 (UniProt Q8N1F7) | 0.152 | -0.628 | 0.589 | -0.164 |
| NSD1 C810 (UniProt Q96L73) | 0.485 | 0.438 | 0.141 | 0.227 |
| NUP160 C529 (UniProt Q12769) | -0.152 | -0.519 | -0.0327 | -0.251 |
| NR2F2 C343 (UniProt P24468) | 0.255 | 0.637 | 0.00658 | 0.766 |
| ORC3 C483 (UniProt Q9UBD5) | -0.255 | -0.277 | -0.0442 | -0.348 |
| OAS3 C850 (UniProt Q9Y6K5) | -0.382 | -0.0642 | -0.246 | -0.329 |
| NUP155 C974 (UniProt O75694) | -0.107 | -0.0438 | -0.0835 | -0.0739 |
| NSUN2 C93 (UniProt Q08J23) | 0.122 | -0.19 | 0.191 | -0.204 |
| NSUN2 C184 (UniProt Q08J23) | -0.127 | 0.113 | -0.19 | 0.164 |
| NUP214 C1003 | 0.014 | -0.115 | 0.0402 | -0.118 |
| OCIAD1 C38 | -0.491 | -0.281 | 0.16 | -0.0446 |
| NUP160 C135 (UniProt Q12769) | -0.0867 | -0.385 | 0.251 | -0.448 |
| ORC6 C82 (UniProt Q9Y5N6) | 0.0836 | -0.189 | -0.0838 | -0.172 |
| NUP37 C149 (UniProt Q8NFH4) | -0.252 | 0.0824 | -0.274 | -0.056 |
| NUP93 C328 (UniProt Q8N1F7) | 0.0132 | -0.148 | -0.209 | -0.192 |
| NRBF2 C155 (UniProt Q96F24) | -0.0576 | -0.19 | 0.279 | -0.049 |
| OPA1 C375 (UniProt O60313) | 0.0457 | -0.113 | -0.094 | -0.106 |
| OSBP2 C319 (UniProt Q969R2) | -0.164 | 0.0852 | -0.386 | 0.0669 |
